Source: patent US20150005347A1, “NITROGEN-CONTAINING HETEROCYCLIC DERIVATIVE HAVING 2-IMINO GROUP AND PEST CONTROL AGENT INCLUDING THE SAME” (MEIJI SEIKA PHARMA CO., LTD., priority 2012, published 2015)
Some entries share one result that the patent states for a list of compounds. For some of these results: At least one read-out could not be matched to a standard name with certainty.

Assays:
Format in all cases: in vivo
[1] = tested on: Haemaphysalis longicornis; assay: Pest control test of Haemaphysalis longicornis, dry film in glass vial; details: dry film from 200 ppm acetone solution; young mites; one day after release
Laodelphax striatella [2] = assay: Pest control test of Laodelphax striatella, soil irrigation treatment of rice seedling; details: 0.05 mg/seedling, three days after release
Excerpt: <Soil Irrigation Treatment Test>
Test Example 10 Pest Control Test of Laodelphax striatellua
A rice seedling in pot culture was subjected to soil irrigation treatment with a drug solution of the compound of the present invention at a predetermined concentration, which had been prepared so as to be a 10% acetone water. Three days after the treatment, ten second instar larvae of Laodelphax striatella were each released thereto. Thereafter, the larvae were left to stand in a thermostatic chamber (16 hours of light period-8 hours of dark period) at 25° C. […] The test was performed in duplicate.
(§1) Mortality of larvae(%)={number of dead larvae/(number of survived larvae+number of dead larvae)}×100

Laodelphax striatella [3] = assay: Pest control test of Laodelphax striatella, wheat seedling root treatment; details: seven days after release
Aphis gossypii = assay: Pest control test of Aphis gossypii, cucumber leaf disk foliar spray; details: first instar larvae, three days after release
Procedure: Test Example 3 Pest Control Test of Aphis gossypii
(§2) A leaf disk having a diameter of 2.0 cm was cut out from a cucumber in pot culture, and a drug solution of the compound of the present invention at a predetermined concentration, which had been prepared so as to be a 50% acetone water (0.05% Tween20 available), was sprayed to the leaf disk. After an air drying process, first instar larvae were released thereto. Thereafter, the larvae were left to stand in a thermostatic chamber (16 hours of light period-8 hours of dark period) at 25° C. […] Test in duplicate.
as §1

Plutella xylostella = Plutella xylostella control test, cabbage leaf disk foliar spray; details: second instar larvae, three days after release
Procedure: Test Example 1 Plutella xylostella Control Test
as §2, with “5.0” for “2.0”, “cabbage” for “cucumber”, “second” for “first”
mortality larvae(%)={number of dead larvae/(number of survived larvae+number of dead larvae)}×100

[4] = tested on: Trigonotylus caelestialium; assay: Pest control test of Trigonotylus caelestialium, wheat seedling dipping; details: three days after treatment
Excerpt: Test Example 8 Pest Control Test of Trigonotylus caelestialium
Wheat seedling leaves and stems four days after the dissemination of seedlings were dipped for 30 seconds in a drug solution of the compound of the present invention at a predetermined concentration, which had been prepared so as to be a 50% acetone water (0.05% Tween20 available). After an air drying process, the wheat seedling leaves and stems were placed into a glass tube, and two second instar larvae of Trigonotylus caelestialium were released to the same glass tube. After the larvae were released, the tube was lidded to leave the larvae to stand in a thermostatic chamber at 25° C. In order to supply water to the wheat during the test, water was given to the wheat from the bottom of the glass tube.
as §1

[5] = tested on: Frankliniella occidentalis; assay: Pest control test of Frankliniella occidentalis, kidney bean leaf disk foliar spray; details: first instar larvae, three days after release
Excerpt: Test Example 7 Pest Control Test of Frankliniella occidentalis
as §2, with “2.8” for “2.0”, “kidney bean” for “cucumber”
as §1

[6] = tested on: Haemaphysalis longicornis; assay: Pest control test of Haemaphysalis longicornis on the body surface of a mouse; details: 9.5 μg on the body surface of the mouse; five days after release
[7] = dipping treatment of the drug solution at 10 ppm
[8] = dipping treatment of the drug solution at 50 ppm

O=C(/N=c1\ccccn1Cc1ccc(F)nc1)C(F)F [Compound 3-3, 2,2-difluoro-N-[1-((6-fluoropyridin-3-yl)methyl)pyridin-2(1H)-ylidene]acetamide]
≥ 80%: mortality of insects [1] | mortality of larvae (Laodelphax striatella [2]) | mortality of larvae (Laodelphax striatella [3]; 2 μg/seedling) | mortality of larvae (Laodelphax striatella [3]; 20 μg/seedling)

O=C(N=c1ccccn1Cc1ccc(F)nc1)C(F)(F)Cl [Compound 3-4]
≥ 80%: mortality of larvae (Aphis gossypii; foliar treatment at 20 ppm) | mortality of larvae (Aphis gossypii; foliar treatment at 100 ppm) | mortality of larvae (Laodelphax striatella [2]) | mortality of larvae (Plutella xylostella; foliar treatment at 100 ppm) | mortality of larvae (Laodelphax striatella [3]; 20 μg/seedling) | mortality of larvae [4, 7]

O=C(N=c1ccccn1Cc1ccc(F)nc1)C(F)(F)C(F)(F)F [Compound 3-5]
≥ 80%: mortality of larvae (Aphis gossypii; foliar treatment at 20 ppm) | mortality of larvae (Laodelphax striatella [2]) | mortality of larvae (Plutella xylostella; foliar treatment at 100 ppm) | mortality of larvae (Laodelphax striatella [3]; 2 μg/seedling) | mortality of larvae (Laodelphax striatella [3]; 20 μg/seedling)

CSCCN=C(N=c1ccccn1Cc1ccc(Cl)nc1)C(F)(F)F [Compound 1-150]
≥ 80%: mortality of larvae (Aphis gossypii; foliar treatment at 20 ppm) | mortality of larvae (Aphis gossypii; foliar treatment at 100 ppm) | mortality of larvae (Aphis gossypii; foliar treatment at 500 ppm) | mortality of larvae (Laodelphax striatella [2]) | mortality of larvae (Plutella xylostella; foliar treatment at 100 ppm) | mortality of larvae (Plutella xylostella; foliar treatment at 500 ppm) | mortality of larvae (Laodelphax striatella [3]; 20 μg/seedling) | mortality of larvae ([5]; foliar treatment at 500 ppm) | mortality of larvae [4, 8] | rate of insects agonized in death [6]

FC(F)(F)C(=NCCc1ccccc1)N=c1ccccn1Cc1ccc(Cl)nc1 [Compound 1-76]
≥ 80%: mortality of larvae (Aphis gossypii; foliar treatment at 20 ppm) | mortality of larvae (Aphis gossypii; foliar treatment at 100 ppm) | mortality of larvae (Plutella xylostella; foliar treatment at 500 ppm) | mortality of larvae (Laodelphax striatella [3]; 2 μg/seedling) | mortality of larvae (Laodelphax striatella [3]; 20 μg/seedling) | mortality of larvae ([5]; foliar treatment at 100 ppm) | mortality of larvae ([5]; foliar treatment at 500 ppm) | mortality of larvae [4, 8] | rate of insects agonized in death [6]

CC(C)C(C)N=C(N=c1ccccn1Cc1ccc(Cl)nc1)C(F)(F)F (stereo not shown) [Compound 1-662]
≥ 80%: mortality of insects [1] | rate of insects agonized in death [6]

CC(N=C(N=c1ccccn1Cc1ccc(Cl)nc1)C(F)(F)F)c1cccs1 (stereo not shown) [Compound 1-669]
≥ 80%: mortality of insects [1] | rate of insects agonized in death [6]

O=C(N=c1ccccn1Cc1ccc(Cl)nn1)C(F)(F)F [Compound 8-2]
≥ 80%: mortality of larvae (Laodelphax striatella [2]) | mortality of larvae (Laodelphax striatella [3]; 2 μg/seedling)

FC(F)(F)C(=NCc1ccccn1)N=c1ccccn1Cc1ccc(Cl)nc1 [Compound 1-118]
≥ 80%: mortality of larvae (Aphis gossypii; foliar treatment at 20 ppm) | mortality of larvae (Aphis gossypii; foliar treatment at 100 ppm) | mortality of larvae (Laodelphax striatella [2]) | mortality of larvae (Plutella xylostella; foliar treatment at 100 ppm) | mortality of larvae (Laodelphax striatella [3]; 2 μg/seedling) | rate of insects agonized in death [6]

O=C(N=c1ccccn1Cc1cnc(Cl)c(F)c1)C(F)(F)Cl [Compound 5-4]
≥ 80%: mortality of insects [1] | mortality of larvae (Laodelphax striatella [2]) | mortality of larvae (Plutella xylostella; foliar treatment at 100 ppm) | mortality of larvae (Laodelphax striatella [3]; 20 μg/seedling) | mortality of larvae [4, 7] | rate of insects agonized in death [6]

O=C(N=c1ccccn1Cc1ccc(Br)nc1)C(F)F [Compound 4-3]
≥ 80%: mortality of insects [1] | mortality of larvae (Laodelphax striatella [2]) | mortality of larvae (Plutella xylostella; foliar treatment at 100 ppm) | mortality of larvae (Laodelphax striatella [3]; 2 μg/seedling) | mortality of larvae ([5]; foliar treatment at 100 ppm) | mortality of larvae [4, 7]

O=C(N=c1ccccn1Cc1cnc(Cl)c(F)c1)C(F)F [Compound 5-3]
≥ 80%: mortality of insects [1] | mortality of larvae (Laodelphax striatella [2]) | mortality of larvae (Plutella xylostella; foliar treatment at 100 ppm) | mortality of larvae (Laodelphax striatella [3]; 2 μg/seedling) | mortality of larvae ([5]; foliar treatment at 100 ppm)

O=C(CC(F)(F)F)N=c1ccccn1Cc1ccc(Cl)nc1 [Compound 1-13]
≥ 80%: mortality of larvae (Aphis gossypii; foliar treatment at 20 ppm) | mortality of larvae (Aphis gossypii; foliar treatment at 100 ppm) | mortality of larvae (Aphis gossypii; foliar treatment at 500 ppm) | mortality of insects [1] | mortality of larvae (Laodelphax striatella [3]; 20 μg/seedling) | mortality of larvae [4, 8]

O=C(N=c1ccccn1Cc1cnc(Cl)nc1)C(F)(F)Cl [Compound 6-4]
≥ 80%: mortality of larvae (Laodelphax striatella [2]) | mortality of larvae (Plutella xylostella; foliar treatment at 100 ppm) | mortality of larvae (Laodelphax striatella [3]; 20 μg/seedling)

CC(N=C(N=c1ccccn1Cc1ccc(Cl)nc1)C(F)(F)F)c1ccco1 (stereo not shown) [Compound 1-667]
≥ 80%: mortality of larvae (Aphis gossypii; foliar treatment at 20 ppm) | mortality of insects [1] | mortality of larvae (Plutella xylostella; foliar treatment at 100 ppm) | rate of insects agonized in death [6]

O=C(N=c1ccccn1Cc1ccc(Br)nc1)C(F)(F)Cl [Compound 4-4]
≥ 80%: mortality of larvae (Laodelphax striatella [2]) | mortality of larvae (Plutella xylostella; foliar treatment at 100 ppm) | mortality of larvae (Laodelphax striatella [3]; 2 μg/seedling) | mortality of larvae (Laodelphax striatella [3]; 20 μg/seedling) | mortality of larvae [4, 7]

FC(F)(F)C(=NC1CCC1)N=c1ccccn1Cc1ccc(Cl)nc1 [Compound 1-51]
≥ 80%: mortality of insects [1] | rate of insects agonized in death [6]

N#CCN=C(N=c1ccccn1Cc1ccc(Cl)nc1)C(F)(F)F [Compound 1-64]
≥ 80%: mortality of larvae (Aphis gossypii; foliar treatment at 20 ppm) | mortality of larvae (Aphis gossypii; foliar treatment at 100 ppm) | mortality of larvae (Laodelphax striatella [2]) | mortality of larvae (Plutella xylostella; foliar treatment at 500 ppm) | mortality of larvae (Laodelphax striatella [3]; 2 μg/seedling) | mortality of larvae (Laodelphax striatella [3]; 20 μg/seedling) | mortality of larvae ([5]; foliar treatment at 500 ppm) | rate of insects agonized in death [6]

N#Cc1cccn(Cc2ccc(Cl)nc2)c1=NC(=O)C(F)(F)F [Compound 102-2]
≥ 80%: mortality of larvae (Aphis gossypii; foliar treatment at 20 ppm) | mortality of larvae (Aphis gossypii; foliar treatment at 100 ppm) | mortality of larvae (Laodelphax striatella [2]) | mortality of larvae (Laodelphax striatella [3]; 2 μg/seedling) | mortality of larvae (Laodelphax striatella [3]; 20 μg/seedling) | mortality of larvae [4, 7] | mortality of larvae [4, 8]

CC(C)N=C(N=c1ccccn1Cc1ccc(Cl)nc1)C(F)(F)F [Compound 1-45]
≥ 80%: mortality of insects [1] | rate of insects agonized in death [6]

FC(F)(Cl)C(=S)N=c1ccccn1Cc1ccc(Cl)nc1 [Compound 1-22]
≥ 80%: mortality of insects [1] | mortality of larvae (Laodelphax striatella [2]) | mortality of larvae (Plutella xylostella; foliar treatment at 100 ppm) | mortality of larvae (Laodelphax striatella [3]; 2 μg/seedling) | mortality of larvae [4, 7]

FC(F)(F)C(=NC1CCCC1)N=c1ccccn1Cc1ccc(Cl)nc1 [Compound 1-52]
≥ 80%: mortality of larvae (Aphis gossypii; foliar treatment at 100 ppm) | mortality of insects [1] | mortality of larvae (Plutella xylostella; foliar treatment at 500 ppm) | mortality of larvae (Laodelphax striatella [3]; 2 μg/seedling) | mortality of larvae (Laodelphax striatella [3]; 20 μg/seedling) | mortality of larvae ([5]; foliar treatment at 500 ppm) | mortality of larvae [4, 8] | rate of insects agonized in death [6]

O=C(N=c1ccccn1Cc1cnc(Cl)nc1)C(F)F [Compound 6-3]
≥ 80%: mortality of insects [1] | mortality of larvae (Laodelphax striatella [2]) | mortality of larvae (Plutella xylostella; foliar treatment at 100 ppm) | mortality of larvae (Laodelphax striatella [3]; 2 μg/seedling) | mortality of larvae ([5]; foliar treatment at 100 ppm) | mortality of larvae [4, 7]

O=C(ON=C(N=c1ccccn1Cc1ccc(Cl)nc1)C(F)(F)F)c1cccnc1 [Compound 1-521]
≥ 80%: mortality of larvae (Aphis gossypii; foliar treatment at 100 ppm) | mortality of larvae (Plutella xylostella; foliar treatment at 100 ppm) | mortality of larvae (Laodelphax striatella [3]; 2 μg/seedling) | mortality of larvae [4, 8]

O=C(N=c1ccccn1Cc1cnc(Cl)nc1)C(F)(F)C(F)(F)F [Compound 6-5]
≥ 80%: mortality of insects [1] | mortality of larvae (Plutella xylostella; foliar treatment at 100 ppm) | mortality of larvae [4, 7]

FC(F)(F)C(=NCc1ccncc1)N=c1ccccn1Cc1ccc(Cl)nc1 [Compound 1-121]
≥ 80%: mortality of larvae (Aphis gossypii; foliar treatment at 20 ppm) | mortality of larvae (Aphis gossypii; foliar treatment at 100 ppm) | mortality of larvae (Laodelphax striatella [2]) | mortality of larvae (Plutella xylostella; foliar treatment at 500 ppm) | mortality of larvae (Laodelphax striatella [3]; 2 μg/seedling) | mortality of larvae (Laodelphax striatella [3]; 20 μg/seedling) | mortality of larvae ([5]; foliar treatment at 100 ppm) | mortality of larvae ([5]; foliar treatment at 500 ppm) | mortality of larvae [4, 8] | rate of insects agonized in death [6]
